Data as given in paper PMC10687140.
These are yes or no findings as the source states them, for the method shown. In cells and extracts the contact can be indirect. Some entries that bind do so weakly or less than the wild type.

Target: EGFR (human (endogenous in Huh7)) (UniProt P00533)
Test: co-IP; Huh7 cells lysed in NETN buffer (20 mM Tris-HCl pH 8.0, 100 mM NaCl, 1 mM EDTA, 0.5% NP40); lysate incubated with SPINK1 antibody (clone 4D4) or EGFR antibody (clone D38B1) overnight at 4°C, Protein A Sepharose beads 3 hours at 4°C; mouse IgG and rabbit IgG as controls; Western blot

- binding: binds
B1: SPINK1 (protein, UniProt P00995 24-79)
chain: DSLGREAKCYNELNGCTKIYDPVCGTDGNTYPNECVLCFENRKRQTSILIQKSGPC
